62 compounds from PubChem BioAssay AID2685 (National Center for Advancing Translational Sciences (NCATS), 2010) can be followed below.

This assay can be described thus: qHTS Assay for Lipid Storage Modulators in Drosophila S3 Cells.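 For cell number change: cells counted by Cell Tracker Red CMTPX staining in the red channel.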 The conditions noted are these: BODIPY lipid droplet fluorescence, 18-24 h; for cell number change: measured here: cell count max response, cells fed with added oleic acid. Put shortly: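 Laser-scanning cytometry quantifies lipid droplet accumulation (500–530 nm total intensity; droplet/cell object ratio) in oleic acid-fed (400 uM added) Drosophila S3 cells treated with a concentration series. 20 uM Triacsin C defined 100% inhibition.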
(In general: In qHTS, concentration-response curves come from the screen itself.)

The mark [1] stands for this setting: measured here: cell number channel AC50, cells fed with added oleic acid.
Where [2] appears, read: measured here: lipid fluorescence (Fed channel) AC50, cells fed with added oleic acid.

Some of the results follow. The main result of the screen is listed elsewhere. These columns were measured beside it and carry no call. Most of these compounds were active or inconclusive in the main read-out, so they are no random draw. Potencies come from curve fits of mixed quality, noted in brackets.

As to `NC(=O)N/N=C/c1ccc(-c2ccc(S(=O)(=O)Nc3ncccn3)cc2)o1`, the cell number change is -10%.
As usually defined, the AC50 is the concentration giving half of the maximal activity seen. A lower AC50 goes with activity at low concentration. Take `O=C(COC(=O)C1(c2ccccc2F)CCCC1)NCc1ccc2c(c1)OCO2`: the cell number change is -32.8%. For the same compound, the AC50 under setting [1] is 29.1 µM [falling, single point]. Also, under setting [2], the AC50 was 25.9 µM [falling, single point].
For `FC(F)(F)c1cccc(-c2ccc(-c3csnn3)o2)c1`, the cell number change was -31.4%. Under setting [1], the AC50 was 16.4 µM [falling, partial curve, poor fit].
As for `C=CCSc1nc(-c2ccccc2)c2cc(Cl)ccc2n1`, the half-maximal activity concentration (AC50) is 0.92 µM [rising, partial curve] under setting [1] and 29.1 µM [rising, single point] under setting [2].
As for `C1CCCC(NC2=NCCO2)CCC1`, the cell number change is -5.88%. The AC50 under setting [2] is 1.46 µM [falling, full curve, poor fit].
Take `O=C(NC(=S)N1CCCC1)c1ccc(Cl)cc1`: the cell number change is -14.6%. Moreover, the AC50 under setting [2] was 16.4 µM [falling, single point].
For the compound `CCOc1ccc(-c2c(C(=O)N/N=C/c3ccoc3)nnn2-c2nonc2N)cc1`, the cell number change is -11.3%.
With `CSc1ccc(CNCCN2CCOCC2)cc1`, the cell number change is -3.08%.
Consider `CN(C)CCCN(CCCN(C)C)C(=S)Nc1ccc(S(=O)(=O)N2CCOCC2)cc1`, for which the cell number change turned out to be 4.44%. Also, the AC50 under setting [1] was 0.00461 µM [rising, full curve, poor fit].
Consider `Cc1ccc(N(C)C(=O)CCS(=O)(=O)c2ccc3c(c2)oc(=O)n3C)cc1`, for which the cell number change is -8.02%. Besides, under setting [2], the concentration at half-maximal activity (AC50) was 7.31 µM [falling, partial curve].
As for `O=C(/C=C/c1ccc(Cl)cc1Cl)OCC(=O)N1CCCC1`, the cell number change was 16.2%. Moreover, the AC50 under setting [2] was 20.6 µM [rising, partial curve, poor fit].
`c1ccc(Nc2nc(N3CCOCC3)c3ccccc3n2)cc1`: the cell number change was determined as 21.9%. Moreover, under setting [2], the AC50 was 29.1 µM [rising, single point].
For `CC(C)c1ccc(NC(=O)C2CCC(CNC(=O)[C@@H]3Cc4ccccc4CN3)CC2)cc1` (some centres undefined), the cell number change is -11.5%. Moreover, the AC50 under setting [2] was 1.03 µM [rising, full curve].
As for `CC(C)NC(=S)NN(c1ccccc1)c1ccccc1`, the cell number change was found to be 51.7%. The AC50 under setting [1] is 8.2 µM [rising, partial curve]. In addition, the concentration at half-maximal activity (AC50) under setting [2] was 6.51 µM [rising, single point].
Take `Cc1ccc(C(C)(C)C)c(SCC(=O)Nc2nnc(C)s2)c1`: the cell number change amounted to 18%.
Turning to `C=CCn1c(=O)c(C(=O)NCc2ccccc2)c(O)c2ccccc21`, the cell number change is 1.82%.
For `O=C1OCCC1Sc1nnc(-c2ccccc2Cl)n1Cc1ccccc1` (centres undefined), the AC50 under setting [1] is 0.517 µM [rising, single point].
On to `Nn1c(=O)c2ccccc2n2c(SCc3ccccc3)nnc12`, for which the cell number change turned out to be 210%. For the same compound, the AC50 under setting [1] is 0.58 µM [rising, single point]. Also, the AC50 under setting [2] is 0.58 µM [rising, single point].
On to `O=C(O)c1ccccc1Nc1ccc2nonc2c1[N+](=O)[O-]`, for which the cell number change was -5.56%.
As to `COc1ccc(NS(=O)(=O)c2ccc(-c3cnc(C4CC4)o3)cc2)cc1OC`, the cell number change is -15.3%. Further, the AC50 under setting [2] is 2.06 µM [falling, partial curve, poor fit].
Consider `CCNC(=O)NC(=O)C(C)OC(=O)CNS(=O)(=O)c1c(Cl)cc(Br)cc1Cl` (centres undefined), for which the cell number change was -28.2%.
In the case of `CCN(CC(=O)Nc1ccccc1C(F)(F)F)C(=O)CCSc1ccc(F)cc1`, the cell number change was -15.7%. For the same compound, the AC50 under setting [2] is 4.11 µM [falling, full curve].
As to `CCCCNC(=O)c1cn(CC)c2cc(N3CCN(C)CC3)c(F)cc2c1=O`, the cell number change is 34.8%. Also, the AC50 under setting [1] was 16.4 µM [rising, partial curve, poor fit]. Besides, the AC50 under setting [2] is 2.06 µM [rising, partial curve].
For the compound `Cc1ccc(C)c(OCCC(=O)OCC(=O)NC2CCS(=O)(=O)C2)c1` (centres undefined), the cell number change was -8.76%.
Consider `Cc1ccc(C(=O)N/C(=C/c2ccco2)C(=O)NCCc2c[nH]c3ccccc23)cc1`, for which the cell number change stood at 3.81%. Also, the AC50 under setting [1] is 5.17 µM [falling, single point]. For the same compound, the AC50 under setting [2] is 0.0058 µM [rising, full curve, poor fit].
For the compound `CC1=CC(=O)O[C@@H]1[C@@]1(C)C[C@H]2OC(=O)C[C@H]3[C@@H](C)C(=O)C(O)=C1[C@@]23CO`, the cell number change is -5.59%. Further, the AC50 under setting [2] is 0.0366 µM [rising, full curve, poor fit].
As to `Cc1ccc(NC(=O)CCC(=O)NNC(=O)c2ccccc2Cl)c(C)c1`, the cell number change was -2.64%. Further, the AC50 under setting [2] was 29.1 µM [falling, single point].
For `CCOc1ccc(CCNC(=O)Cn2nc(C)n3cccc3c2=O)cc1OCC`, the cell number change was -21.5%. Besides, the AC50 under setting [2] was 2.31 µM [rising, partial curve].
Regarding `COc1cccc(NC(=S)NC(=O)c2cccnc2)c1`, the cell number change turned out to be 43.9%. Moreover, under setting [1], the AC50 was 29.1 µM [rising, single point].
Regarding `CCn1c(=O)[nH]c(=O)c2c(N)c(C(=O)c3cc(F)ccc3F)sc21`, the cell number change came to 7.37%. Besides, under setting [2], the AC50 is 0.0058 µM [rising, full curve, poor fit].
With `COc1cc(-c2nc3ccc4ccccc4c3c3c2CCC3)cc(OC)c1OC`, the cell number change is -3.86%.
Turning to `CCN(CC)CCNc1ncnc2c1sc1nc(N3CCOCC3)c3c(c12)CC(C)(C)SC3`, the cell number change is -26.2%. Besides, the AC50 under setting [2] is 0.82 µM [falling, full curve, poor fit].
As for `COc1ccc2[nH]c3ccccc3c2c1`, the cell number change was -17.6%.
Turning to `Cc1ncc([N+](=O)[O-])n1CC(=O)Nc1ccc(F)cc1F`, the cell number change was 9.72%. Under setting [2], the AC50 was 0.58 µM [falling, single point].
As to `COC(=O)c1cn(CCC#N)nc1-c1ccc2ccccc2c1`, the cell number change was -25%. In addition, the AC50 under setting [2] was 4.11 µM [rising, partial curve].
As to `CN1/C(=C\C(=O)COC(=O)Cn2nnc(-c3ccccc3)n2)C(C)(C)c2ccccc21`, the cell number change was -5.65%. The AC50 under setting [2] was 29.1 µM [rising, single point].
For `COC(=O)C1C2C=CC3(CN(Cc4ccco4)C(=O)C13)O2` (centres undefined), the cell number change is -4.66%.
As to `O=C(NCc1ccccc1F)C1CCN(C(=O)Nc2ccc(F)cc2)CC1`, the cell number change is 13.3%. Further, the AC50 under setting [2] is 29.1 µM [rising, single point].
`COc1ccc(-c2ccc(SCC(=O)NCc3ccco3)nn2)cc1`: the cell number change was found to be 0.415%. Besides, the AC50 under setting [1] was 0.411 µM [rising, full curve, poor fit]. Further, the AC50 under setting [2] was 29.1 µM [rising, single point].
Turning to `COC(=O)Cc1ccc(NC(=O)c2ccc3c(c2)C(=O)N(Cc2cccnc2)C3=O)cc1`, the cell number change is -18.6%. The half-maximal activity concentration (AC50) under setting [2] was 29.1 µM [falling, single point].
Consider `COc1ccc(CCNC(=O)C(CC(C)C)NC(N)=O)cc1` (centres undefined), for which the cell number change is -24.9%.
Take `CCCc1cc(=O)oc2c3c(c4c(c12)OC(C)(C)C=C4)OC(C)C(C)C3O` (centres undefined): the cell number change was -61.2%. Moreover, the AC50 under setting [1] is 18.4 µM [falling, single point].
Consider `COCCN(CC(=O)NC1CCCCC1)C(=O)/C=C/C(=O)c1ccc(OC)cc1O`, for which the cell number change was -11.5%. Also, the AC50 under setting [2] is 1.46 µM [falling, full curve, poor fit].
`CCOc1ccc(NC(=O)N2CCC(c3nc4ccccc4[nH]3)CC2)cc1`: the cell number change is 1.48%. In addition, the AC50 under setting [1] was 0.00651 µM [falling, full curve, poor fit].
For `COc1cccc(NC(=O)Cn2c(=O)c3c(ncn3Cc3ccccc3)n(Cc3ccccc3)c2=O)c1`, the cell number change came to 107%. Moreover, under setting [1], the AC50 is 1.64 µM [rising, full curve].
For the compound `COc1ccc(-c2c(C)nc3c(-c4ccsc4)cnn3c2N)cc1`, the cell number change is -45.4%. In addition, the AC50 under setting [1] was 13 µM [falling, partial curve]. Under setting [2], the AC50 was 14.6 µM [falling, single point].
In the case of `CCOc1ccc(S(=O)(=O)NCCC(=O)OCC(=O)Nc2cc(C)on2)cc1`, the cell number change is -16.7%. Further, the AC50 under setting [2] is 32.6 µM [falling, single point].
As to `O=C1CSC(c2ccc([N+](=O)[O-])cc2)N1c1ccc(O)cc1` (centres undefined), the cell number change stood at 10.6%. The AC50 under setting [2] is 0.58 µM [rising, single point].
Regarding `CC(=O)N1c2ccc(F)c(F)c2C[C@H]1C`, the cell number change is -17.5%. Besides, the AC50 under setting [2] was 29.1 µM [rising, single point].
Take `Cc1ccc(N(CN2C(=O)c3ccccc3C2=O)C(=O)c2ccc([N+](=O)[O-])cc2[N+](=O)[O-])cc1`: the cell number change is -8.96%. Further, the AC50 under setting [2] is 6.51 µM [rising, single point].
Consider `Cc1c(C(=O)NCc2ccc3c(c2)OCO3)cccc1[N+](=O)[O-]`, for which the cell number change was 9.86%. For the same compound, the AC50 under setting [2] is 10.3 µM [rising, partial curve].
For `Cc1ccc(C(=O)NCC(=O)OC(C)C(=O)NC2CCCc3ccccc32)cc1` (centres undefined), the cell number change is -16%. The AC50 under setting [2] is 6.51 µM [rising, single point].
With `CC1(C)N=C(N)N=C(N)N1c1cccc(C(=O)O)c1`, the half-maximal activity concentration (AC50) under setting [2] was 20.6 µM [falling, partial curve].
As for `COc1ccc(S(=O)(=O)c2c(N)n(Cc3ccco3)c3nc4ccccc4nc23)cc1`, the cell number change is 24.8%. Further, the AC50 under setting [1] is 2.06 µM [rising, partial curve, poor fit]. Moreover, under setting [2], the AC50 was 2.59 µM [rising, single point].
For `COc1ccc(CN(C)C(C)C(=O)Nc2ccc(S(=O)(=O)N3CCCC3)cc2)c(OC)c1OC` (centres undefined), the cell number change is 36.6%. In addition, the AC50 under setting [1] is 2.91 µM [rising, full curve].
In the case of `COc1cc(NC(=O)CS(=O)(=O)c2ccc(C)cc2)cc(OC)c1OC`, the cell number change was 13.3%. Moreover, the AC50 under setting [2] was 29.1 µM [rising, single point].
Regarding `COc1cc(OC)cc(C(=O)NC(C(=O)Nc2ccc(N3CCOCC3)cc2)C(C)C)c1` (centres undefined), the cell number change was -12.4%.
Turning to `Cc1ccc(/C=C/S(=O)(=O)NCCC(=O)NCc2ccc(F)cc2)cc1`, the AC50 under setting [2] is 14.6 µM [falling, partial curve].
With `COc1cccc(CN(C)C(=O)c2cccc(S(=O)(=O)N3CCN(Cc4ccccc4)CC3)c2)c1OC`, the AC50 under setting [1] is 1.64 µM [rising, partial curve].
`O=C1NCCCN1Cc1ccc(F)cc1`: under setting [2], the AC50 is 18.4 µM [falling, partial curve].
Take `Cc1ccc(C(C)C)c(OCC(=O)NNC(=O)C(C(C)C)N2C(=O)c3ccccc3C2=O)c1` (centres undefined): the AC50 under setting [2] was 14.6 µM [falling, partial curve].
For `O=C(N/N=C/c1ccco1)C(O)c1ccccc1` (centres undefined), the cell number change is -37.1%. Further, the AC50 under setting [1] was 0.164 µM [falling, full curve]. The AC50 under setting [2] was 0.206 µM [falling, full curve].
